Consider four molecules from publication PMC5150538, “Structural basis of myelin-associated glycoprotein adhesion and signalling” (Nature Communications, 2016).

In assay [1] the target is MAG1–5 I473E glycosylated (mouse) (UniProt P20917). The assay is described as follows: SAXS; ESRF BM29, SEC buffer (150 mM NaCl, 20 mM HEPES pH 7.5), 20 °C (277 K for deglycosylated MAG1–5 N406Q), single concentration of 33-52 μM for each sample; monomer to dimer; both purified.
The target is the same in assay [2]. The assay is described as follows: AUC; sedimentation equilibrium, SEC buffer (150 mM NaCl, 20 mM HEPES pH 7.5), 20 °C, 7,500, 14,000 and 20,000 r.p.m., global analysis of several concentrations, speeds and wavelengths; monomer to dimer; both purified.
Assay [3] has as its target MAG1–5 I473E deglycosylated (mouse) (UniProt P20917). The assay is described as follows: SAXS; ESRF BM29, SEC buffer (150 mM NaCl, 20 mM HEPES pH 7.5), 20 °C (277 K for deglycosylated MAG1–5 N406Q), single concentration of 33-52 μM for each sample; monomer to dimer; both purified.
Assay [4] addresses MAG1–3 glycosylated (three N-terminal Ig domains of mouse MAG) (mouse) (UniProt P20917). Described as above.
Assay [5] shares this target. The assay is described as follows: AUC; sedimentation equilibrium, SEC buffer (150 mM NaCl, 20 mM HEPES pH 7.5), 20 °C, 7,500, 14,000 and 20,000 r.p.m., global analysis of several concentrations, speeds and wavelengths; monomer to dimer; both purified.
Assay [6] has as its target MAG1–3 deglycosylated (mouse) (UniProt P20917). The assay is described as follows: SAXS; ESRF BM29, SEC buffer (150 mM NaCl, 20 mM HEPES pH 7.5), 20 °C (277 K for deglycosylated MAG1–5 N406Q), single concentration of 33-52 μM for each sample; monomer to dimer; both purified.

These are yes or no findings as the source states them, for the method shown.

B1: MAG1–5 I473E glycosylated (domain or fragment, UniProt P20917 20-508)
chain: GHWGAWMPSTISAFEGTCVSIPCRFDFPDELRPAVVHGVWYFNSPYPKNYPPVVFKSRTQVVHESFQGRSRLLGDLGLRNCTLLLSTLSPELGGKYYFRGDLGGYNQYTFSEHSVLDIVNTPNIVVPPEVVAGTEVEVSCMVPDNCPELRPELSWLGHEGLGEPTVLGRLREDEGTWVQVSLLHFVPTREANGHRLGCQAAFPNTTLQFEGYASLDVKYPPVIVEMNSSVEAIEGSHVSLLCGADSNPPPLLTWMRDGMVLREAVAKSLYLDLEEVTPGEDGVYACLAENAYGQDNRTVELSVMYAPWKPTVNGTVVAVEGETVSILCSTQSNPDPILTIFKEKQILATVIYESQLQLELPAVTPEDDGEYWCVAENQYGQRATAFNLSVEFAPIILLESHCAAARDTVQCLCVVKSNPEPSVAFELPSRNVTVNETEREFVYSERSGLLLTSELTIRGQAQAPPRVICTSRNLYGTQSLELPFQGAHR
modifications: N-linked glycans (made in GnTI- cells)
For B1, the binding result in assay [1] is “no binding (tested: 46.2 μM)”; in assay [2] it was “no binding (tested: 3.6, 8.3, 41.4 and 102.8 μM)”.

B2: MAG1–5 I473E deglycosylated (domain or fragment, UniProt P20917 20-508)
chain: B1 chain
modifications: N-linked glycans trimmed down to single N-Acetylglucosamines by Endo-Hf
With B2, the binding entry in assay [3] is given as “no binding (tested: 45.1 μM)”.

B3: MAG1–3 glycosylated (three N-terminal Ig domains of mouse MAG) (domain or fragment, UniProt P20917 20-325)
chain: GHWGAWMPSTISAFEGTCVSIPCRFDFPDELRPAVVHGVWYFNSPYPKNYPPVVFKSRTQVVHESFQGRSRLLGDLGLRNCTLLLSTLSPELGGKYYFRGDLGGYNQYTFSEHSVLDIVNTPNIVVPPEVVAGTEVEVSCMVPDNCPELRPELSWLGHEGLGEPTVLGRLREDEGTWVQVSLLHFVPTREANGHRLGCQAAFPNTTLQFEGYASLDVKYPPVIVEMNSSVEAIEGSHVSLLCGADSNPPPLLTWMRDGMVLREAVAKSLYLDLEEVTPGEDGVYACLAENAYGQDNRTVELSVMYA
modifications: N-linked glycans (made in GnTI- cells); C-mannosylation on W22
Consider B3, for which the binding result was “no binding (tested: 43.7 μM)” in assay [4]; “no binding (tested: 7.2, 57.4 and 332 μM)” in assay [5].

B4: MAG1–3 deglycosylated (domain or fragment, UniProt P20917 20-325)
chain: B3 chain
modifications: N-linked glycans trimmed down to single N-Acetylglucosamines by Endo-Hf
As for B4, the binding entry in assay [6] is “no binding (tested: 38.2 μM)”.
